Reference: publication PMC9345867
These are yes or no findings as the source states them, for the method shown. Binding seen in cells or lysates may run through a third protein. Some entries that bind do so weakly or less than the wild type. Where a sequence is shown, tags or fusion partners need not be part of it. Each block holds one molecule with its values, some of them ahead of it.

By UniProt entry, the sequences of proteins in these tests, tags left out.
UniProt O14744: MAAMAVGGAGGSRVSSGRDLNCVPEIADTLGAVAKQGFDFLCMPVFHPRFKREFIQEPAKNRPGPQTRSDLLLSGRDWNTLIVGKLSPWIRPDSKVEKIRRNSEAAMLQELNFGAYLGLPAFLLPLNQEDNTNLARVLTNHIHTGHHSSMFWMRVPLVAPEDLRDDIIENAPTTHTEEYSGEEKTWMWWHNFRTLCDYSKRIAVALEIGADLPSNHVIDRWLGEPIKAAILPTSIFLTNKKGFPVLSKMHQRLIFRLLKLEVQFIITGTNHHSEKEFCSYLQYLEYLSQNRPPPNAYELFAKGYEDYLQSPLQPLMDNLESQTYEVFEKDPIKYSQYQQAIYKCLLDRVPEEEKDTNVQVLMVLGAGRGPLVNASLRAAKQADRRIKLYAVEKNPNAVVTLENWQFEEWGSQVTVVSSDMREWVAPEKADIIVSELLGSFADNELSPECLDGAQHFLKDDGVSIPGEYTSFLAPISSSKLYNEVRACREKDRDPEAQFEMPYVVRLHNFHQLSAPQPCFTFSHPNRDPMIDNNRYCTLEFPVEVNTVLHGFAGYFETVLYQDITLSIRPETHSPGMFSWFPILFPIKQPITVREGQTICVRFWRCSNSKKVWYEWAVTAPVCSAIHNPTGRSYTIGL

Experiments:
FLAG-CT47 (human) = molecular target: T1, FLAG-CT47 (human) (UniProt Q5JQC4); experiment: co-IP; HEK293T cells cotransfected with FLAG-CT47 and HA-PRMT5; reciprocal IPs with anti-FLAG or anti-HA antibodies, detection with anti-HA or anti-FLAG antibodies
T1 sequence: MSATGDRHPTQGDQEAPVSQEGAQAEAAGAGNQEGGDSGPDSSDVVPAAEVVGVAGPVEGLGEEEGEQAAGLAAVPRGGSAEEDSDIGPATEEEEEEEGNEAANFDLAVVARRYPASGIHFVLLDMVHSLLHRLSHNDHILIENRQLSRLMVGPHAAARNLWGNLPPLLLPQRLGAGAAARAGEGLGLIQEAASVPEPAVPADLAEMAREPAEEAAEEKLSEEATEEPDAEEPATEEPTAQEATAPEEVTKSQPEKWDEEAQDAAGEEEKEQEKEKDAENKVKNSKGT

HA-PRMT5 = HA-PRMT5 (UniProt O14744); experiment: as above

binding (FLAG-CT47 (human)): binds
Molecule: HA-PRMT5 (from UniProt O14744 1-637) (enzyme)

binding (HA-PRMT5): binds
B1: FLAG-CT47 (protein, UniProt Q5JQC4 1-288)
chain: T1 sequence
